Record: PubChem BioAssay AID504786 (Drosophila RNAi Screening Center, 2011)
Purpose: 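Fly genes required for HIF-dependent transcription when hypoxia is mimicked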 (primary screen). Cell system: Drosophila S2 cells with a stable HIF luciferase reporter. Reagents: long dsRNA against Drosophila genes, about 0.2 µg dsRNA per well of a 384-well plate. Duration: three days of knock-down, then 20 h of DFO before reading. Conditions: desferrioxamine (DFO) at 100 µM, an iron chelator that mimics hypoxia, for 20 h. Measurement: 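HIF reporter luminescence in cells given 100 µM DFO for 20 h, using the mouse ldh-a hypoxia-response element, scored as per-plate z-scores; higher means greater loss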. Direction: z-score: higher = stronger loss of HIF reporter signal.
The deposit covers about 21,000 reagents; below is a random part of those that have a named target and a result. 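Primary screen; positive scores mean lost reporter signal, so the sign may be inverted from the usual convention.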 A plus sign joins genes that one reagent is predicted to hit.

CG6432 [DRSC16039]: z-score, replicate 1 = -0.3; z-score, replicate 2 = -0.5
Or59c [DRSC04633]: z-score, replicate 1 = -0.2; z-score, replicate 2 = -0.6
l(2)k09022 [DRSC02108]: z-score, replicate 1 = 1.1; z-score, replicate 2 = 3.8
CG32050 (retired record) [DRSC10173]: z-score, replicate 1 = -0.3; z-score, replicate 2 = -0.7
CG12325 [DRSC06130]: z-score, replicate 1 = 0; z-score, replicate 2 = 0.8
CG10764 [DRSC06000]: z-score, replicate 1 = -0.3; z-score, replicate 2 = -0.2
nrv3 [DRSC03097]: z-score, replicate 1 = 0.3; z-score, replicate 2 = -0.4
Pex23 [DRSC10323]: z-score, replicate 1 = -0.3; z-score, replicate 2 = -0.6
Pex23 [DRSC10645]: z-score, replicate 1 = -0.4; z-score, replicate 2 = -0.3
CG13239 [DRSC11694]: z-score, replicate 1 = -0.2; z-score, replicate 2 = -0.3
mthl3 [DRSC06997]: z-score, replicate 1 = -0.2; z-score, replicate 2 = -0.2
Alg10 [DRSC10892]: z-score, replicate 1 = -0.4; z-score, replicate 2 = -0.4
CG4928 [DRSC19342]: z-score, replicate 1 = -0.3; z-score, replicate 2 = -0.3
l(3)07882 [DRSC15882]: z-score, replicate 1 = -0.2; z-score, replicate 2 = 0.4
CG9701 [DRSC11093]: z-score, replicate 1 = -0.2; z-score, replicate 2 = -0.4
CG9018 [DRSC08618]: z-score, replicate 1 = -0.4; z-score, replicate 2 = -0.9
CG34296 [DRSC13961]: z-score, replicate 1 = 0; z-score, replicate 2 = -0.2
PIG-H + Kmn2 [DRSC12653]: z-score, replicate 1 = 0.6; z-score, replicate 2 = 1.1
CG9672 [DRSC20201]: z-score, replicate 1 = -0.3; z-score, replicate 2 = 0.3
Ir25a [DRSC00462]: z-score, replicate 1 = 0; z-score, replicate 2 = -0.4
CG13227 [DRSC06347]: z-score, replicate 1 = -0.2; z-score, replicate 2 = -0.2
CG12470 [DRSC18620]: z-score, replicate 1 = -0.4; z-score, replicate 2 = 3.4
CG15056 [DRSC19630]: z-score, replicate 1 = -0.3; z-score, replicate 2 = -0.2
Gpdh2 [DRSC04346]: z-score, replicate 1 = -0.4; z-score, replicate 2 = -0.3
Rh4 + sina [DRSC11396]: z-score, replicate 1 = -0.3; z-score, replicate 2 = -0.6
Ser7 [DRSC18201]: z-score, replicate 1 = -0.3; z-score, replicate 2 = -0.1
CG11141 [DRSC06048]: z-score, replicate 1 = -0.1; z-score, replicate 2 = 0
CG11902 [DRSC14434]: z-score, replicate 1 = -0.6; z-score, replicate 2 = 0.3
CG7443 [DRSC16244]: z-score, replicate 1 = -0.4; z-score, replicate 2 = -1.1
CG31688 [DRSC02682]: z-score, replicate 1 = -0.1; z-score, replicate 2 = 0
Usp5 [DRSC08244]: z-score, replicate 1 = -0.3; z-score, replicate 2 = -0.4
Rtc1 [DRSC20285]: z-score, replicate 1 = 0.5; z-score, replicate 2 = 3
TwdlB [DRSC16050]: z-score, replicate 1 = -0.1; z-score, replicate 2 = 0.2
betaggt-I [DRSC03494]: z-score, replicate 1 = -0.2; z-score, replicate 2 = 0.1
drl [DRSC03523]: z-score, replicate 1 = -0.3; z-score, replicate 2 = -0.2
CG32110 [DRSC09220]: z-score, replicate 1 = 0.3; z-score, replicate 2 = 0
CG17996 + Tsen2 [DRSC02650]: z-score, replicate 1 = 0.1; z-score, replicate 2 = -0.5
Ype [DRSC20301]: z-score, replicate 1 = 0.1; z-score, replicate 2 = -0.3
AstCC [DRSC02404]: z-score, replicate 1 = -0.4; z-score, replicate 2 = -0.7
ash1 [DRSC11325]: z-score, replicate 1 = 0.8; z-score, replicate 2 = 0.9
